From patent US9820487B2, “Abscinazole” (NATIONAL UNIVERSITY CORPORATION SHIZUOKA UNIVERSITY, priority 2014, dated 2017)
Some entries share one result that the patent states for a list of compounds.

System: seeds of thale cress (Arabidopsis thaliana, Col-0)
Experiment: Thale cress seed germination inhibition test (1)
Format: in vivo
Settings: medium with sample and ABA, 22° C. continuous light; germination rate 72 hours (FIG. 1), growth 120 hours (FIG. 2)

With `CCCCOCCOCCOCC#Cc1cccc(/C=C(\C(O)C(C)(C)C)n2cncn2)c1` (stereo not drawn) [Example 2, (E)-1-(3-(3-(2-(2-butoxyethoxy)ethoxy)prop-1-yn-1-yl)phenyl)-4,4-dimethyl-2-(1H-1,2,4-triazol-1-yl)pent-1-en-3-ol] the “influence on seed germination” value was “inhibits the seed germination”.

In the case of `COCCOCCOCCOCC#Cc1cccc(/C=C(\C(O)C(C)(C)C)n2cncn2)c1` (stereo not drawn) [Example 1, (E)-1-(3-(2,5,8,11-tetraoxatetradec-13-yn-14-yl)phenyl)-4,4-dimethyl-2-(1H-1,2,4-triazol-1-yl)pent-1-en-3-ol], the “influence on seed germination” value is reported as “inhibits the seed germination”.

In the case of `COCCOCCOCCOCC#Cc1ccc(/C=C(\C(O)C(C)(C)C)n2cncn2)cc1` (stereo not drawn) [Example 3, (E)-1-(4-(2,5,8,11-tetraoxatetradec-13-yn-14-yl)phenyl)-4,4-dimethyl-2-(1H-1,2,4-triazol-1-yl)pent-1-en-3-ol], the “influence on seed germination” value is reported as “inhibits the seed germination”.
